The supplement of paper PMC10849652
The other results are listed elsewhere or left out. Residues, ends and D or L forms follow the SMILES beside them. *: point of attachment. Cbz = O=C(OCc1ccccc1)*

Protein sequences, listed by entry. Tags and fused reporters are not part of them. Lines headed by an entry give the natural chain unless they say otherwise; changes in a name come on top.
UniProt P30405: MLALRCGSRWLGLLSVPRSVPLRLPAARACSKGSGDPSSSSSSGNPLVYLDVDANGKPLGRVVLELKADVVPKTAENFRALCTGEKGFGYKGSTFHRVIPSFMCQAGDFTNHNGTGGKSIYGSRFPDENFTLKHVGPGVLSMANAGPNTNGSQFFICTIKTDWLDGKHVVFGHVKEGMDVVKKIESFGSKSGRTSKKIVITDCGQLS
UniProt Q6PFW1: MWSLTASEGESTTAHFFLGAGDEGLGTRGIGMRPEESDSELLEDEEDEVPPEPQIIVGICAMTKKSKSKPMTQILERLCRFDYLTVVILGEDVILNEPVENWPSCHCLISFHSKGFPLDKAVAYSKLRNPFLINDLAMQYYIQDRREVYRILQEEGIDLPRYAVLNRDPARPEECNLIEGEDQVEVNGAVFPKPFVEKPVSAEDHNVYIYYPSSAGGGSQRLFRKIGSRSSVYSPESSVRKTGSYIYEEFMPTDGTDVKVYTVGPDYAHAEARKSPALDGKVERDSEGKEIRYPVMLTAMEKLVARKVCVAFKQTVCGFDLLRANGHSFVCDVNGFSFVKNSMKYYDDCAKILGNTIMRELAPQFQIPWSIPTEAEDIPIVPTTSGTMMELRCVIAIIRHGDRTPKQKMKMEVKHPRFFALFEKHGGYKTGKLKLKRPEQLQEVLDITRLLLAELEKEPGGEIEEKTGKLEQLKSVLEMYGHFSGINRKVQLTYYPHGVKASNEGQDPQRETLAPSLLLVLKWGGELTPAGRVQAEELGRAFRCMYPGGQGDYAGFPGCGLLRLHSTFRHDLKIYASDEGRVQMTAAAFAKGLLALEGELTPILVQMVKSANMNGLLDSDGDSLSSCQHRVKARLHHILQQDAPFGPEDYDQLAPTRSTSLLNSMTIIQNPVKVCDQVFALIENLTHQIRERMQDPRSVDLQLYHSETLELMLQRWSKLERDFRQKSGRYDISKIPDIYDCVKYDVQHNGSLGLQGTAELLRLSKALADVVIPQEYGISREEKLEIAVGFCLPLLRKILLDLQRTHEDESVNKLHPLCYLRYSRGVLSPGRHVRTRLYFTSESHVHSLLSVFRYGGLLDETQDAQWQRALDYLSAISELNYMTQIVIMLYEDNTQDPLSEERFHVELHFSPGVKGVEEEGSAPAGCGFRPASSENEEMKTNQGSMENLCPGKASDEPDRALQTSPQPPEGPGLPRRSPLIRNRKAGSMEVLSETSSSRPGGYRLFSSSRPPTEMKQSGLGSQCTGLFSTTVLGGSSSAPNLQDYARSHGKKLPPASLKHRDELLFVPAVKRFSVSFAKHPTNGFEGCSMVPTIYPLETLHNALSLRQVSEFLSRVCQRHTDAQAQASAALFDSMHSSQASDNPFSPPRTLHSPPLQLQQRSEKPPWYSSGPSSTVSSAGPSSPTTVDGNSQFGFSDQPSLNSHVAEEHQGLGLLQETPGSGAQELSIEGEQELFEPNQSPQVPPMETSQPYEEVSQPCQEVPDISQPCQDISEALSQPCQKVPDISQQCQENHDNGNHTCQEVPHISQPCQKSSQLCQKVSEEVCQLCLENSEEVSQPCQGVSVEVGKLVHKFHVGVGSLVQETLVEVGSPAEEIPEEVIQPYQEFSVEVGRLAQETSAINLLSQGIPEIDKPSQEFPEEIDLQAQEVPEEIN
UniProt Q9UHN1: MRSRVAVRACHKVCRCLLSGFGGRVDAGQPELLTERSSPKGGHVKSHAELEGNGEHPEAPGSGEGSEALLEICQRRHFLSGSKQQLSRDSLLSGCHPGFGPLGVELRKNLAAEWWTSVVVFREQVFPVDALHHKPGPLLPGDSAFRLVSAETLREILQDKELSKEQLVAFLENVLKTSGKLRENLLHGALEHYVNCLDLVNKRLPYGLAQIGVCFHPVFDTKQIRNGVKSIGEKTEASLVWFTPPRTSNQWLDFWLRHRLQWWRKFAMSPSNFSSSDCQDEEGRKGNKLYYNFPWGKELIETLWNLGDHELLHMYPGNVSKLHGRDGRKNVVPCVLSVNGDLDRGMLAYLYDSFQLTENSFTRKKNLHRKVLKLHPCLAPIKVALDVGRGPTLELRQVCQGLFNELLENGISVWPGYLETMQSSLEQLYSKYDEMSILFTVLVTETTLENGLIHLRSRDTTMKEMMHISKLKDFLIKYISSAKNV
UniProt Q13136: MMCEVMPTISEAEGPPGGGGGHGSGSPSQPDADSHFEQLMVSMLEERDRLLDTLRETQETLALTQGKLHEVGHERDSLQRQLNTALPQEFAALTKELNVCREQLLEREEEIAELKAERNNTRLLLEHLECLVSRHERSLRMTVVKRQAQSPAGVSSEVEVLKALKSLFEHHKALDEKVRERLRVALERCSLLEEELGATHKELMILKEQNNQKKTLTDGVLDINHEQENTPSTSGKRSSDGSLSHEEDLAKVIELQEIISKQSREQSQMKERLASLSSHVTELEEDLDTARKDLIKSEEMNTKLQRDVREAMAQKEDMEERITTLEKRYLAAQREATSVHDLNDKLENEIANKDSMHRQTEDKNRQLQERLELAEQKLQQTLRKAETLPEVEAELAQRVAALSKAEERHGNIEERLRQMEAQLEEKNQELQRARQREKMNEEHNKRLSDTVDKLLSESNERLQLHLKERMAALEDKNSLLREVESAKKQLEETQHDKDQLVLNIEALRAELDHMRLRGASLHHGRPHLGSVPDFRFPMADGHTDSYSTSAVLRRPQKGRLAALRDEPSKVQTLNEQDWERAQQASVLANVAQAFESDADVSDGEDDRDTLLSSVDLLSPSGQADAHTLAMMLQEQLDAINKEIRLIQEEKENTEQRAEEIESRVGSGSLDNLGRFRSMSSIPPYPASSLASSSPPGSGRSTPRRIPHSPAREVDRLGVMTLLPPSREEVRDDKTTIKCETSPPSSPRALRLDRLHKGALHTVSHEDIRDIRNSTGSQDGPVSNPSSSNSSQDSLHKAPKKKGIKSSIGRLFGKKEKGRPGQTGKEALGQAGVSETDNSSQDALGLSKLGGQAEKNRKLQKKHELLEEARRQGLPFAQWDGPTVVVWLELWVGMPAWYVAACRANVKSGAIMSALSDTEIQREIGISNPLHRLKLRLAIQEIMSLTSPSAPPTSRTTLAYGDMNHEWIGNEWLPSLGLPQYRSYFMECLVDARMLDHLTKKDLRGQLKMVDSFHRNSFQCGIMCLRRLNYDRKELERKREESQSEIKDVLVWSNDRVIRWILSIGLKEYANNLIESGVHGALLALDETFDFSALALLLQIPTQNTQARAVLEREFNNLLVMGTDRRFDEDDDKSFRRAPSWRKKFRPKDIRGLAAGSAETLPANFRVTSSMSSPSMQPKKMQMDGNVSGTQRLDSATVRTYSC
UniProt O15160, whole entry, looked up: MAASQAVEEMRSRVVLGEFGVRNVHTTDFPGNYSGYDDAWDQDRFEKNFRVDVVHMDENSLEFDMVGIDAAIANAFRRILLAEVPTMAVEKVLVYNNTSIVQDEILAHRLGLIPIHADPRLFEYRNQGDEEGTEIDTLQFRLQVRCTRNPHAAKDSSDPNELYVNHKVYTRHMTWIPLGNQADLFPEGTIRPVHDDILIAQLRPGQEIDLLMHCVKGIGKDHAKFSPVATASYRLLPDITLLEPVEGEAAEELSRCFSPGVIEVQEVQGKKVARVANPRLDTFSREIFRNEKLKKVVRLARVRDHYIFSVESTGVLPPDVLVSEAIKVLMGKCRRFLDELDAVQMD
UniProt O43660: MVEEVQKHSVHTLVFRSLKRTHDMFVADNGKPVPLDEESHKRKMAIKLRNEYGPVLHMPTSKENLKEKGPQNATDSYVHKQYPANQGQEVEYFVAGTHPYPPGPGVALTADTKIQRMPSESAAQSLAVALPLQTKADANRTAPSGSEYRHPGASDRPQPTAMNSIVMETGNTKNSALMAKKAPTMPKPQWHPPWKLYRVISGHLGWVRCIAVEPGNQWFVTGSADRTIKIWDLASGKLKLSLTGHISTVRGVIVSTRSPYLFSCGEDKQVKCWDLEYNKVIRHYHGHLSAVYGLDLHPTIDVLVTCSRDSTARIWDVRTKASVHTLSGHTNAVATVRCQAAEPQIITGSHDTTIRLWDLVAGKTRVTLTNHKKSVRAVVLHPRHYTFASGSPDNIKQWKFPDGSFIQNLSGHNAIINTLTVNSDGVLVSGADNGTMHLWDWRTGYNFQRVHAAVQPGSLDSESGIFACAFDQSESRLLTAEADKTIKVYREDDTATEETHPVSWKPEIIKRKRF
UniProt O75817: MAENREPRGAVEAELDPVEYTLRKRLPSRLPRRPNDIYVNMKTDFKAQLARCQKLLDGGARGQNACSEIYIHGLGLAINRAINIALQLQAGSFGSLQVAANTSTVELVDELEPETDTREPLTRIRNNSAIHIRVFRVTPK
UniProt Q9BY77: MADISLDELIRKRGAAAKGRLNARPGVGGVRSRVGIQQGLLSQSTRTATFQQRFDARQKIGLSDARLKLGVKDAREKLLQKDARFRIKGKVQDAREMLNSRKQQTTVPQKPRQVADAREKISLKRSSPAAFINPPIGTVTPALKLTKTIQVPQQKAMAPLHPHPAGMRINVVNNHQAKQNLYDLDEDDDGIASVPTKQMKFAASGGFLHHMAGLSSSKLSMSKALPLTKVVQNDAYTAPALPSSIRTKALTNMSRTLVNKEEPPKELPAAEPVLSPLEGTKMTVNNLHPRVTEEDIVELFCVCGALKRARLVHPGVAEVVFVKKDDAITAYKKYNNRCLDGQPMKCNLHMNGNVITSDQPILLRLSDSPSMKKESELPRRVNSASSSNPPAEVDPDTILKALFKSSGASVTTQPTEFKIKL
UniProt O75334: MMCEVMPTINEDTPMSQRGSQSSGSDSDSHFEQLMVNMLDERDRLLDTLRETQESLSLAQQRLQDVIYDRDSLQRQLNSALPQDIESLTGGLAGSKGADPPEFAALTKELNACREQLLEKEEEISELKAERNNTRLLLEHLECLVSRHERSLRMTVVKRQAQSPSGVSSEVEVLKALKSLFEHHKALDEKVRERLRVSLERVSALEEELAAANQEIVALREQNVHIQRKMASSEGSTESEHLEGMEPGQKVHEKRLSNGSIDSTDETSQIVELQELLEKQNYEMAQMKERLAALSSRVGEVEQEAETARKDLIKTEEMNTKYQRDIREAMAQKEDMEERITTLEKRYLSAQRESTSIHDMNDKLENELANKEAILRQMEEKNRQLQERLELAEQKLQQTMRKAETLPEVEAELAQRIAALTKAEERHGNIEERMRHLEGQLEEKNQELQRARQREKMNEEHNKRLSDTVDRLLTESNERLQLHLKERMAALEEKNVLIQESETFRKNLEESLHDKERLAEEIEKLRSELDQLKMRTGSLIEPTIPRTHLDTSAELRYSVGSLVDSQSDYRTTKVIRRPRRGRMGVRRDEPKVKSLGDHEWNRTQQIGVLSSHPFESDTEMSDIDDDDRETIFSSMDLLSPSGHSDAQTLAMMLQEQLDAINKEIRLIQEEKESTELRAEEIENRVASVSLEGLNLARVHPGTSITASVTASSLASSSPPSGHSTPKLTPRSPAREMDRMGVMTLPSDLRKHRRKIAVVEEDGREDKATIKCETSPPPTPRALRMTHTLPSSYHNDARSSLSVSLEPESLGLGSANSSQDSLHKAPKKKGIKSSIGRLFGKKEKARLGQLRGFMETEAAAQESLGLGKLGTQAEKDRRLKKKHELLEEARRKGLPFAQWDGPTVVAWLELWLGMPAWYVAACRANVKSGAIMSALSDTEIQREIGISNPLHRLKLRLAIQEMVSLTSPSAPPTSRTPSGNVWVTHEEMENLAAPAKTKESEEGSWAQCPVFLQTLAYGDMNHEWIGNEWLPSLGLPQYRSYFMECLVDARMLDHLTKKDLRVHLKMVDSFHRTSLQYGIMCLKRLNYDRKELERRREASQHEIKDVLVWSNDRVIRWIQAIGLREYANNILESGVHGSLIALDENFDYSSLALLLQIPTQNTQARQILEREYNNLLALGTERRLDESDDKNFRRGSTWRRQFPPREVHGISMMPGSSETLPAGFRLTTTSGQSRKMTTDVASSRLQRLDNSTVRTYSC
UniProt O60664: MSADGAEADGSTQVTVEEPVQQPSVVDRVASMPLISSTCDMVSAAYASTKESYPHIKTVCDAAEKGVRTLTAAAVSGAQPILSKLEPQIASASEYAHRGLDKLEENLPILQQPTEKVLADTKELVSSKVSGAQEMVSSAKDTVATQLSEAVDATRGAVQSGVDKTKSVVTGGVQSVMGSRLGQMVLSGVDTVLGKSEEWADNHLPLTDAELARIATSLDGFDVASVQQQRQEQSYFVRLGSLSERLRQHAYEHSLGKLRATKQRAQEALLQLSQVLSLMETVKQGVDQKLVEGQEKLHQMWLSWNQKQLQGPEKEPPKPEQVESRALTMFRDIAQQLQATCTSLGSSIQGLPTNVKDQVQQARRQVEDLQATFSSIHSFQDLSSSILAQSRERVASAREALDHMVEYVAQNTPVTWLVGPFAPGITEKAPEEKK

Legend:
Assay in all cases: log2 fold change, soluble protein after heating vs DMSO (PISA); higher = thermal stabilisation; K562 cells, 10 uM, 30 min; active = over 0.2 and 3.5 SD of the protein, either way, in both replicates (recomputed)
erlotinib = compound: C#Cc1cccc(Nc2ncnc3cc(OCCOC)c(OCCOC)cc23)c1 [erlotinib]
Outline: (§1)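 K562 cells at 2×10^6 cells/mL were treated for 30 min with 10 μM compound, and aliquots were heated for 3 min over 48°C-58°C before pooling. Extraction used PBS with 0.5% NP-40 at 4°C, and soluble protein was the supernatant after 21,000xg for 90 min, measured by TMTpro 16plex LC-MS/MS with channel sums equalised. Thermal stability values, relative to control samples and from duplicates, are log2 fold changes.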

[1] = compound: C/C(=N\NC(=O)C1=CC(=CC=C1)S(=O)(=O)N2CCOCC2)/C3=C(C=CC(=C3)Cl)O
Outline: as §1

[2] = compound: C1=CC(=C(C=C1Cl)C2=NC3=NC=CN=C3C(=N2)NC4=CC=NC=C4)F
Outline: as §1

[3] = compound: C1=CC(=CC=C1C2=NC3=C(N2)C=C(C=C3)C(=O)N)OC4=CC=C(C=C4)Cl
Outline: as §1

[4] = compound: C1=CC2=C(C=CC(=C2)/C=C\3/C(=O)NC(=NCC4=CC=CS4)S3)N=C1
Outline: as §1

[5] = compound: C1=CC2=NC=CN=C2C=C1/C=C/3\C(=O)NC(=O)S3
Outline: as §1

[6] = compound: C1=CC=C(C=C1)C2=NC(=C(N2)C3=CC=NC=C3)C4=CC(=C(C=C4)Cl)O
Outline: as §1

[7] = compound: C1=CC=C2C(=C1)C3=NNC4=CC=CC(=C43)C2=O
Outline: as §1

[8] = compound: C1CCN(C1)C(=O)NC2=CC=CC(=C2)NC3=NC=C(C(=N3)NCCC4=CN=CN4)Br
Outline: as §1

[9] = compound: C1CN(CCC1(CC2=CC=C(C=C2)Cl)N)C3=NC=NC4=C3C=CN4
Outline: as §1

IRAK-1-4 Inhibitor I = compound: C1COCCN1CCN2C3=CC=CC=C3N=C2NC(=O)C4=CC(=CC=C4)[N+](=O)[O-] [IRAK-1-4 Inhibitor I]
Outline: as §1

ibrutinib = compound: C=CC(=O)N1CCC[C@@H](n2nc(-c3ccc(Oc4ccccc4)cc3)c3c(N)ncnc32)C1 [ibrutinib]
Outline: as §1

[10] = compound: CC(=O)c1cnc2ccc(-c3cc(Cl)c(O)c(Cl)c3)nc2c1N[C@H]1CC[C@H](CN(C)C)CC1
Outline: as §1

ralimetinib = compound: CC(C)(C)Cn1c(N)nc2ccc(-c3[nH]c(C(C)(C)C)nc3-c3ccc(F)cc3)nc21 [ralimetinib]
Outline: as §1

[11] = compound: CC(C)(O)CC(=O)NCCn1ccc2ncnc(Nc3ccc(Oc4cccc(C(F)(F)F)c4)c(Cl)c3)c21
Outline: as §1

[12] = compound: CC(C)C1=C2N=C(C=C(N2N=C1)NCC3=CC=CC=C3)NCCCCCCN
Outline: as §1

[13] = compound: CC(C)C[C@@H](C=O)NC(=O)[C@H](CC(C)C)NC(=O)[C@H](CC(C)C)NC(=O)OCc1ccccc1
Outline: as §1

pinometostat = compound: CC(C)N(C[C@H]1O[C@@H](n2cnc3c(N)ncnc32)[C@H](O)[C@@H]1O)[C@H]1C[C@@H](CCc2nc3cc(C(C)(C)C)ccc3[nH]2)C1 [pinometostat]
Outline: as §1

[14] = compound: CC1=C(C(CC(=O)N1)C2=CC=C(C=C2)C(F)(F)F)C(=O)NC3=C(C=C4C(=C3)C=NN4)F
Outline: as §1

[15] = compound: CC1=C(C2=C(C=C1)C(=O)C3=CC=CC=C3N2CCCN)C
Outline: as §1

Measured: log2 fold change

PNPT1 (UniProt Q8TCS8)
inactive: erlotinib 0.044 | [1] 0.097 | [2] 0.047 | [3] -0.046 | [4] 0.085 | [5] 0.002 | [6] 0.01 | [7] 0.021 | [8] -0.039 | [9] 0.011 | IRAK-1-4 Inhibitor I -0.032 | ibrutinib -0.02 | [10] -0.088 | ralimetinib -0.081 | [11] -0.144 | [12] 0.041 | [13] -0.034 | pinometostat -0.035 | [14] -0.014 | [15] 0.059

PPIF (UniProt P30405)
inactive: erlotinib 0.054 | [1] 0.043 | [2] -0.117 | [3] -0.084 | [4] 0.064 | [5] -0.022 | [6] -0.011 | [7] 0.04 | [8] 0.008 | [9] 0.021 | IRAK-1-4 Inhibitor I 0.092 | ibrutinib 0.012 | [10] -0.015 | ralimetinib -0.056 | [11] 0.003 | [12] 0.008 | [13] 0.05 | pinometostat 0 | [14] -0.011 | [15] 0.048

PPIB (UniProt P23284)
inactive: erlotinib -0.088 | [1] -0.033 | [2] -0.035 | [3] 0 | [4] -0.023 | [5] -0.029 | [6] -0.028 | [7] 0.013 | [8] 0.014 | [9] -0.015 | IRAK-1-4 Inhibitor I -0.035 | ibrutinib -0.033 | [10] 0.028 | ralimetinib 0.021 | [11] 0.069 | [12] 0.026 | [13] 0.02 | pinometostat 0.025 | [14] 0.011 | [15] 0.007

PPIP5K1 (UniProt Q6PFW1)
inactive: erlotinib -0.054 | [1] 0.092 | [2] 0.022 | [3] 0.034 | [4] 0.003 | [5] -0.023 | [6] -0.021 | [7] -0.008 | [8] -0.034 | [9] -0.03 | IRAK-1-4 Inhibitor I 0.054 | ibrutinib 0.013 | [10] 0.006 | ralimetinib -0.003 | [11] -0.09 | [12] 0.002 | [13] -0.008 | pinometostat -0.016 | [14] -0.028 | [15] -0.04

POLR3A (UniProt O14802)
inactive: erlotinib 0.094 | [1] 0.002 | [2] -0.05 | [3] -0.036 | [4] -0.005 | [5] 0.014 | [6] 0.027 | [7] 0.017 | [8] -0.067 | [9] -0.045 | IRAK-1-4 Inhibitor I -0.096 | ibrutinib -0.025 | [10] 0.067 | ralimetinib -0.014 | [11] -0.048 | [12] -0.049 | [13] 0.071 | pinometostat 0.08 | [14] 0.112 | [15] 0.175

POLG2 (UniProt Q9UHN1)
inactive: erlotinib -0.029 | [1] -0.042 | [2] -0.008 | [3] 0.017 | [4] -0.038 | [5] -0.016 | [6] -0.038 | [7] 0 | [8] -0.006 | [9] 0.001 | IRAK-1-4 Inhibitor I 0.016 | ibrutinib 0.072 | [10] 0.022 | ralimetinib -0.014 | [11] 0.007 | [12] 0.051 | [13] 0.05 | pinometostat -0.047 | [14] -0.008 | [15] 0.087

PPFIA1 (UniProt Q13136)
inactive: erlotinib 0.003 | [1] 0.119 | [2] 0.004 | [3] 0.067 | [4] 0.008 | [5] 0.119 | [6] -0.105 | [7] -0.003 | [8] 0.104 | [9] 0.098 | IRAK-1-4 Inhibitor I -0.072 | ibrutinib -0.131 | [10] -0.166 | ralimetinib 0.045 | [11] -0.067 | [12] -0.136 | [13] 0.119 | pinometostat 0.067 | [14] 0.123 | [15] 0.184

POLR1C (UniProt O15160)
inactive: erlotinib 0.03 | [1] 0.042 | [2] -0.07 | [3] -0.046 | [4] -0.013 | [5] 0.022 | [6] -0.025 | [7] 0.034 | [8] -0.045 | [9] -0.142 | IRAK-1-4 Inhibitor I -0.066 | ibrutinib -0.049 | [10] 0.013 | ralimetinib 0.071 | [11] -0.074 | [12] -0.204 | [13] 0.037 | pinometostat 0.063 | [14] 0.017 | [15] 0.051

PLRG1 (UniProt O43660)
inactive: erlotinib -0.02 | [1] -0.029 | [2] -0.056 | [3] 0.036 | [4] -0.023 | [5] 0.046 | [6] -0.003 | [7] -0.009 | [8] 0.024 | [9] 0.021 | IRAK-1-4 Inhibitor I 0 | ibrutinib -0.028 | [10] 0.019 | ralimetinib -0.059 | [11] 0.152 | [12] 0.123 | [13] 0.016 | pinometostat 0.015 | [14] 0.101 | [15] 0.095

POP7 (UniProt O75817)
inactive: erlotinib 0.167 | [1] -0.02 | [2] -0.153 | [3] -0.045 | [4] 0.021 | [5] -0.073 | [6] -0.015 | [7] -0.043 | [8] -0.05 | [9] -0.025 | IRAK-1-4 Inhibitor I -0.008 | ibrutinib -0.046 | [10] -0.009 | ralimetinib 0.039 | [11] -0.001 | [12] 0.109 | [13] 0.032 | pinometostat 0.013 | [14] 0.081 | [15] -0.213

POLDIP3 (UniProt Q9BY77)
inactive: erlotinib 0.024 | [1] -0.063 | [2] 0.007 | [3] -0.007 | [4] -0.097 | [5] 0.015 | [6] -0.108 | [7] 0.012 | [8] 0.02 | [9] 0.08 | IRAK-1-4 Inhibitor I -0.153 | ibrutinib -0.007 | [10] 0.117 | ralimetinib 0.008 | [11] 0.038 | [12] 0.07 | [13] 0.074 | pinometostat 0.045 | [14] -0.03 | [15] 0.065

POLR2H (UniProt P52434)
inactive: erlotinib 0.023 | [1] -0.007 | [2] -0.001 | [3] 0.025 | [4] 0.043 | [5] 0.074 | [6] -0.034 | [7] 0.002 | [8] 0.005 | [9] -0.073 | IRAK-1-4 Inhibitor I 0.016 | ibrutinib 0.012 | [10] 0.102 | ralimetinib 0.048 | [11] -0.071 | [12] -0.024 | [13] 0.048 | pinometostat 0.039 | [14] -0.008 | [15] 0.037

PPFIA2 (UniProt O75334)
inactive: erlotinib -0.109 | [1] 0.144 | [2] -0.148 | [3] 0.029 | [4] -0.045 | [5] 0.011 | [6] 0.102 | [7] 0.08 | [8] 0.021 | [9] 0.206 | IRAK-1-4 Inhibitor I -0.344 | ibrutinib -0.019 | [10] 0.006 | ralimetinib 0.302 | [11] 0.013 | [12] 0.27 | [13] 0.101 | pinometostat 0.085 | [14] 0.15 | [15] -0.054

Copied from the entries so far (two entries):
POLDIP3 (UniProt Q9BY77)
inactive: erlotinib 0.024 | [1] -0.063 | [2] 0.007 | [3] -0.007 | [4] -0.097 | [5] 0.015 | [6] -0.108 | [7] 0.012 | [8] 0.02 | [9] 0.08 | IRAK-1-4 Inhibitor I -0.153 | ibrutinib -0.007 | [10] 0.117 | ralimetinib 0.008 | [11] 0.038 | [12] 0.07 | [13] 0.074 | pinometostat 0.045 | [14] -0.03 | [15] 0.065

POLR2H (UniProt P52434)
inactive: erlotinib 0.023 | [1] -0.007 | [2] -0.001 | [3] 0.025 | [4] 0.043 | [5] 0.074 | [6] -0.034 | [7] 0.002 | [8] 0.005 | [9] -0.073 | IRAK-1-4 Inhibitor I 0.016 | ibrutinib 0.012 | [10] 0.102 | ralimetinib 0.048 | [11] -0.071 | [12] -0.024 | [13] 0.048 | pinometostat 0.039 | [14] -0.008 | [15] 0.037

The list continues.

PPA2 (UniProt Q9H2U2)
inactive: erlotinib 0.009 | [1] 0.027 | [2] 0.068 | [3] -0.006 | [4] 0.025 | [5] -0.002 | [6] 0.028 | [7] 0.007 | [8] 0.024 | [9] -0.041 | IRAK-1-4 Inhibitor I 0.045 | ibrutinib 0.01 | [10] -0.003 | ralimetinib -0.048 | [11] -0.031 | [12] -0.031 | [13] -0.046 | pinometostat -0.044 | [14] -0.007 | [15] 0.024

PLIN3 (UniProt O60664)
inactive: erlotinib 0.023 | [1] 0.029 | [2] 0.037 | [3] 0.014 | [4] 0.022 | [5] 0.006 | [6] 0.003 | [7] -0.016 | [8] -0.028 | [9] 0.013 | IRAK-1-4 Inhibitor I 0.022 | ibrutinib -0.008 | [10] 0.002 | ralimetinib -0.001 | [11] -0.016 | [12] -0.05 | [13] -0.013 | pinometostat -0.04 | [14] 0.009 | [15] 0.02

POGLUT2 (UniProt Q6UW63)
inactive: erlotinib -0.076 | [1] -0.055 | [2] -0.047 | [3] 0.041 | [4] 0.036 | [5] 0.006 | [6] -0.05 | [7] 0.039 | [8] -0.011 | [9] -0.015 | IRAK-1-4 Inhibitor I -0.052 | ibrutinib -0.03 | [10] -0.007 | ralimetinib -0.005 | [11] 0.019 | [12] -0.01 | [13] 0.047 | pinometostat 0.058 | [14] 0.037 | [15] -0.06
